Results published in paper PMC7944388.
No constants are given. Whether binding was seen depends on the method and setting. In cells and extracts the contact can be indirect. Some entries that bind do so weakly or less than the wild type. For part of these data: Where a sequence is shown, tags or fusion partners need not be part of it. Blank lines part the entries; values can stand above or below the molecule they belong to.

Protein sequences, listed by entry. Tags and fused reporters are not part of them. Lines headed by an entry give the natural chain unless they say otherwise; changes in a name come on top. Chains listed by the source or under a name are the forms on record and can include a tag or linker. Residues count along the entry.
UniProt P07237: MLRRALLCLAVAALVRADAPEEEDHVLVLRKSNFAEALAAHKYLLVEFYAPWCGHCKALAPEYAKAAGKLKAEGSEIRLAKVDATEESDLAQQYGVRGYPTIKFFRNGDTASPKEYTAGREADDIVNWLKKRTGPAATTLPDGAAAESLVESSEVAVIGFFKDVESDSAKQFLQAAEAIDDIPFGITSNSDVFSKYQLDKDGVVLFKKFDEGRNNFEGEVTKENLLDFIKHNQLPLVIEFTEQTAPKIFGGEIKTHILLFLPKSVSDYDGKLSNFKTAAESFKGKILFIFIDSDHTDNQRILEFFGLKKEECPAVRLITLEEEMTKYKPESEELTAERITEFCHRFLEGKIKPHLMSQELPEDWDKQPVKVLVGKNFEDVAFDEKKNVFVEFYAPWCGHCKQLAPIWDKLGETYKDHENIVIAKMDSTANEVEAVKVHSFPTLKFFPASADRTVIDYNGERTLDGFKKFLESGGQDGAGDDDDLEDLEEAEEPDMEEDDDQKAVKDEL
Flag-tagged P4HB truncated mutant, first domain a (aa 1-138): residues 18-138 of P07237
UniProt P09103, residues 20-509: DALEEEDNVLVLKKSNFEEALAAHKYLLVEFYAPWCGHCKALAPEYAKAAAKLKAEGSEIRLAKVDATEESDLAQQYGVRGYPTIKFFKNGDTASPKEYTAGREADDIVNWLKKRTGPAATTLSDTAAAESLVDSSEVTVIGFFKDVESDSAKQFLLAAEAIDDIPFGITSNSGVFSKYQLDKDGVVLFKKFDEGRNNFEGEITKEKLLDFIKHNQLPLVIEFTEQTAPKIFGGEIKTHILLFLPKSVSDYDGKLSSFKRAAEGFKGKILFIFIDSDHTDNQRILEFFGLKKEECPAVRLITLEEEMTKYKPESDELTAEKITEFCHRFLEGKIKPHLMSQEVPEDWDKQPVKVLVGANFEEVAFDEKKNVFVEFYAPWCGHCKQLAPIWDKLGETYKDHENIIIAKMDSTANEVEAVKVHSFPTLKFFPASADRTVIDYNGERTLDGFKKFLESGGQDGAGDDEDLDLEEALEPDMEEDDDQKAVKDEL
UniProt P10415: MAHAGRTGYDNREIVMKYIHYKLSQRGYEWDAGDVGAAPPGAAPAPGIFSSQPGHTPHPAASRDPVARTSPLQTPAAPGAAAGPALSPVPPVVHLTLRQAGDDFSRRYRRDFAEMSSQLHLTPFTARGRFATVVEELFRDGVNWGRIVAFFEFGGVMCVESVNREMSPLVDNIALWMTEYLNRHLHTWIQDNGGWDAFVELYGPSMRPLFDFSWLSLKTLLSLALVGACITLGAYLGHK

What was measured:
V5-PHGDH = molecular target: T1, V5-PHGDH (UniProt O43175); experiment: co-IP; 293T cells transfected with V5-PHGDH, precipitated with anti-V5 antibody, endogenous Bcl-2 blotted
T1 sequence: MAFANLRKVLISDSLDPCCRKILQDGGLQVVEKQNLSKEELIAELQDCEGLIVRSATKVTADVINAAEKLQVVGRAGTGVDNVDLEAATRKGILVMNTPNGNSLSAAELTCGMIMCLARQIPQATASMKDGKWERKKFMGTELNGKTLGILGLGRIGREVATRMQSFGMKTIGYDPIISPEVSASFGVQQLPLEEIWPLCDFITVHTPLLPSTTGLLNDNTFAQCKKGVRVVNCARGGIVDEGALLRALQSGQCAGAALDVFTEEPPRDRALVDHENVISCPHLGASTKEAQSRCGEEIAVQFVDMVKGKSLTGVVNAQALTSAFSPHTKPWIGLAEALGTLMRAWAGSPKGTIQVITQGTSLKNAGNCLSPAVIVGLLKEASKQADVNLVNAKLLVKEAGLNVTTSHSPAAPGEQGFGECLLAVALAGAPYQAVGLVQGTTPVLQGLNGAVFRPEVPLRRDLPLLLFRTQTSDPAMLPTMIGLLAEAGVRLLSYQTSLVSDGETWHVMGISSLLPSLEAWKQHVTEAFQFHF

[1] = molecular target: T2, phosphoglycerate dehydrogenase (PHGDH), endogenous (mouse (endogenous in GA muscle and C2C12)) (UniProt Q61753); experiment: co-IP; C2C12 myoblasts transfected with Flag-P4HB, precipitated with anti-PHGDH antibody, Flag tag blotted
T2 sequence: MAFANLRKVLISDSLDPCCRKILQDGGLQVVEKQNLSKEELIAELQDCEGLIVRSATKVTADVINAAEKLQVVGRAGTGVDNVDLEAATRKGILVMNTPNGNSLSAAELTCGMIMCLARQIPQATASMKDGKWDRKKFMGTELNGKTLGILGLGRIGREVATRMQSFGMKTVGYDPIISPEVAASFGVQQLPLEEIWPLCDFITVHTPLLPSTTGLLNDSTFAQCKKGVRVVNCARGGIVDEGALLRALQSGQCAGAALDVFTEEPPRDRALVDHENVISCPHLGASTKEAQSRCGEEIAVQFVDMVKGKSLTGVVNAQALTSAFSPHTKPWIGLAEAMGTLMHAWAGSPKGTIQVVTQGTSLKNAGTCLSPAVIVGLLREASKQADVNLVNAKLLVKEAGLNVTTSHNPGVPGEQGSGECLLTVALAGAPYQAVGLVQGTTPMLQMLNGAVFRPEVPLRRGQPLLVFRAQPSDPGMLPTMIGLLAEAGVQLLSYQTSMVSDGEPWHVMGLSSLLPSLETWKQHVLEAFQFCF

GST-PHGDH fusion protein = molecular target: T3, GST-PHGDH fusion protein (UniProt O43175); experiment: pull-down; extracted Flag-P4HB protein incubated with GST or GST-PHGDH fusion protein and glutathione Sepharose beads at 4°C overnight; blot with P4HB antibody; only the target purified
T3 sequence: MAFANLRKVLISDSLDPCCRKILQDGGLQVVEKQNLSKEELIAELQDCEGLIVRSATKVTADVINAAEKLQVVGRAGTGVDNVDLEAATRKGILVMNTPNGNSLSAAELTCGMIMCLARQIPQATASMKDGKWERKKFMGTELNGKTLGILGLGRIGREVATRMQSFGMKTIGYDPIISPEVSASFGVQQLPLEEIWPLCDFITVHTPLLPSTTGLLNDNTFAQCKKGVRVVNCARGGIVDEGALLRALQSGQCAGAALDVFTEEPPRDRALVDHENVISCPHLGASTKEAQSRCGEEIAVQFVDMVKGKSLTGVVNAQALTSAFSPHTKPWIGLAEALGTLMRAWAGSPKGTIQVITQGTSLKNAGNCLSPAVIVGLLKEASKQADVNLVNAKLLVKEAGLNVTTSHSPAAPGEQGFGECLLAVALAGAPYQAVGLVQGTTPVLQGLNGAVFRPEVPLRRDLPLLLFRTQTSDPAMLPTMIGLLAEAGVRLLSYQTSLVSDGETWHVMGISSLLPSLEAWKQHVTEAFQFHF

[2] = molecular target: Flag-P4HB (full-length coding region of P4HB with triple flag tags at the C-terminus) (UniProt P07237); experiment: co-IP; C2C12 myoblasts transfected with control vector, Flag-tagged wild type or truncated mutants of P4HB; anti-FLAG M2 Magnetic Beads; PHGDH blotted
[3] = molecular target: Flag-tagged P4HB truncated mutant, first domain a (aa 1-138) (UniProt P07237); experiment: as above
[4] = molecular target: prolyl 4-hydroxylase subunit beta (P4HB), endogenous (mouse (endogenous in GA muscle and C2C12)) (UniProt P09103); experiment: co-IP; C2C12 myoblast lysate, both endogenous, precipitated with anti-P4HB antibody, PHGDH blotted; IgG control; lysis buffer pH 7.6, 150 mM NaCl, 0.8% NP-40, 4°C overnight

- binding (V5-PHGDH): binds
Molecule: Bcl-2, endogenous (from UniProt P10415 1-239)

- binding [1]: binds
- binding (GST-PHGDH fusion protein): binds
Molecule: Flag-P4HB (full-length coding region of P4HB with triple flag tags at the C-terminus) (from UniProt P07237 18-508)

- binding [2]: binds
- binding [3]: binds
- binding [4]: binds
B1: phosphoglycerate dehydrogenase (PHGDH), endogenous (protein, UniProt Q61753 1-533)
chain: MAFANLRKVLISDSLDPCCRKILQDGGLQVVEKQNLSKEELIAELQDCEGLIVRSATKVTADVINAAEKLQVVGRAGTGVDNVDLEAATRKGILVMNTPNGNSLSAAELTCGMIMCLARQIPQATASMKDGKWDRKKFMGTELNGKTLGILGLGRIGREVATRMQSFGMKTVGYDPIISPEVAASFGVQQLPLEEIWPLCDFITVHTPLLPSTTGLLNDSTFAQCKKGVRVVNCARGGIVDEGALLRALQSGQCAGAALDVFTEEPPRDRALVDHENVISCPHLGASTKEAQSRCGEEIAVQFVDMVKGKSLTGVVNAQALTSAFSPHTKPWIGLAEAMGTLMHAWAGSPKGTIQVVTQGTSLKNAGTCLSPAVIVGLLREASKQADVNLVNAKLLVKEAGLNVTTSHNPGVPGEQGSGECLLTVALAGAPYQAVGLVQGTTPMLQMLNGAVFRPEVPLRRGQPLLVFRAQPSDPGMLPTMIGLLAEAGVQLLSYQTSMVSDGEPWHVMGLSSLLPSLETWKQHVLEAFQFCF
